Where a name gives a salt, the structure may show the parent alone. This is one part of the list. Repeats in this data set agree poorly, so a single value says little.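 Human fetal ventral-midbrain neural progenitor line ReNCell VM, differentiated without mitogens. Images stained for doublecortin (early neurons) or tyrosine hydroxylase (dopaminergic neurons) were scored by blinded raters against untreated wells (0 = no change). Repeats and both raters were averaged, and compounds averaging 2 or higher were picked as hits for retesting.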
Key:
ReNCell VM [1] = experiment: neuronal differentiation score (DCX+ cell fraction vs untreated, manual image score) (score (-3 to 3)); higher = more neuronal differentiation; settings: 2 uM, 2 weeks
ReNCell VM [2] = experiment: dopaminergic neuron differentiation score (TH+ cell fraction vs untreated, manual image score) (score (0 to 3)); higher = more TH+ dopaminergic neuron differentiation; settings: 2 uM, 4 weeks, BDNF 10 ng/ml + GDNF 10 ng/ml

OCCN(CCO)c1nc(N2CCCCC2)c2nc(N(CCO)CCO)nc(N3CCCCC3)c2n1 [Dipyridamole]
neuronal differentiation score (ReNCell VM [1]; library: LOPAC): inactive: 0
neuronal differentiation score (ReNCell VM [1]; library: Prestwick): inactive: 0
neuronal differentiation score (ReNCell VM [1]; library: Tocriscreen): inactive: 0
dopaminergic neuron differentiation score (ReNCell VM [2]; library: LOPAC): inactive: 0
dopaminergic neuron differentiation score (ReNCell VM [2]; library: Prestwick): inactive: 0
dopaminergic neuron differentiation score (ReNCell VM [2]; library: Tocriscreen): inactive: 0

COc1cc2nc(N3CCN(C(=O)c4ccco4)CC3)nc(N)c2cc1OC [Prazosin hydrochloride]
neuronal differentiation score (ReNCell VM [1]; library: LOPAC): inactive: 0
neuronal differentiation score (ReNCell VM [1]; library: Prestwick): inactive: 0
neuronal differentiation score (ReNCell VM [1]; library: Tocriscreen): inactive: 0
dopaminergic neuron differentiation score (ReNCell VM [2]; library: LOPAC): inactive: 0
dopaminergic neuron differentiation score (ReNCell VM [2]; library: Prestwick): inactive: 0
dopaminergic neuron differentiation score (ReNCell VM [2]; library: Tocriscreen): inactive: 0

CNCCC(Oc1ccccc1OC)c1ccccc1 (stereo unspecified) [Nisoxetine hydrochloride]
neuronal differentiation score (ReNCell VM [1]; library: LOPAC): inactive: 0
neuronal differentiation score (ReNCell VM [1]; library: Prestwick): inactive: 0
neuronal differentiation score (ReNCell VM [1]; library: Tocriscreen): inactive: 0
dopaminergic neuron differentiation score (ReNCell VM [2]; library: LOPAC): inactive: 0
dopaminergic neuron differentiation score (ReNCell VM [2]; library: Prestwick): inactive: 0
dopaminergic neuron differentiation score (ReNCell VM [2]; library: Tocriscreen): inactive: 0

CN(C)C(=O)C(CCN1CCC(O)(c2ccc(Cl)cc2)CC1)(c1ccccc1)c1ccccc1 [Loperamide hydrochloride]
neuronal differentiation score (ReNCell VM [1]; library: LOPAC): inactive: 0
neuronal differentiation score (ReNCell VM [1]; library: Prestwick): inactive: 0
neuronal differentiation score (ReNCell VM [1]; library: Tocriscreen): inactive: 0
dopaminergic neuron differentiation score (ReNCell VM [2]; library: LOPAC): inactive: 0
dopaminergic neuron differentiation score (ReNCell VM [2]; library: Prestwick): inactive: 0
dopaminergic neuron differentiation score (ReNCell VM [2]; library: Tocriscreen): inactive: 0

CN1CCC[C@@H]1CCO[C@](C)(c1ccccc1)c1ccc(Cl)cc1 [Clemastine fumarate]
neuronal differentiation score (ReNCell VM [1]; library: LOPAC): inactive: -1
neuronal differentiation score (ReNCell VM [1]; library: Prestwick): inactive: 0
neuronal differentiation score (ReNCell VM [1]; library: Tocriscreen): inactive: 0
dopaminergic neuron differentiation score (ReNCell VM [2]; library: LOPAC): inactive: 0
dopaminergic neuron differentiation score (ReNCell VM [2]; library: Prestwick): inactive: 0
dopaminergic neuron differentiation score (ReNCell VM [2]; library: Tocriscreen): inactive: 0

Cc1c(OCC(F)(F)F)ccnc1C[S+]([O-])c1nc2ccccc2[nH]1 (stereo unspecified) [Lansoprazole]
neuronal differentiation score (ReNCell VM [1]; library: LOPAC): inactive: 0
neuronal differentiation score (ReNCell VM [1]; library: Prestwick): inactive: 0
neuronal differentiation score (ReNCell VM [1]; library: Tocriscreen): inactive: 0
dopaminergic neuron differentiation score (ReNCell VM [2]; library: LOPAC): inactive: 0
dopaminergic neuron differentiation score (ReNCell VM [2]; library: Prestwick): inactive: 0
dopaminergic neuron differentiation score (ReNCell VM [2]; library: Tocriscreen): inactive: 0

CC#C[C@]1(O)CC[C@H]2[C@@H]3CCC4=CC(=O)CCC4=C3[C@@H](c3ccc(N(C)C)cc3)C[C@@]21C [Mifepristone]
neuronal differentiation score (ReNCell VM [1]; library: LOPAC): inactive: 0
neuronal differentiation score (ReNCell VM [1]; library: Prestwick): inactive: 0
neuronal differentiation score (ReNCell VM [1]; library: Tocriscreen): inactive: 0
dopaminergic neuron differentiation score (ReNCell VM [2]; library: LOPAC): inactive: 0
dopaminergic neuron differentiation score (ReNCell VM [2]; library: Prestwick): inactive: 0
dopaminergic neuron differentiation score (ReNCell VM [2]; library: Tocriscreen): inactive: 0

CC(C)NCC(O)COc1ccc(CCOCC2CC2)cc1 (stereo unspecified) [Betaxolol hydrochloride]
neuronal differentiation score (ReNCell VM [1]; library: LOPAC): inactive: 0
neuronal differentiation score (ReNCell VM [1]; library: Prestwick): inactive: 0
neuronal differentiation score (ReNCell VM [1]; library: Tocriscreen): inactive: 0
dopaminergic neuron differentiation score (ReNCell VM [2]; library: LOPAC): inactive: 0
dopaminergic neuron differentiation score (ReNCell VM [2]; library: Prestwick): inactive: 0
dopaminergic neuron differentiation score (ReNCell VM [2]; library: Tocriscreen): inactive: 0

CC(C)NCC(O)COc1cccc2[nH]ccc12 (stereo unspecified) [Pindolol]
neuronal differentiation score (ReNCell VM [1]; library: LOPAC): inactive: 0
neuronal differentiation score (ReNCell VM [1]; library: Prestwick): inactive: 0
neuronal differentiation score (ReNCell VM [1]; library: Tocriscreen): inactive: 0
dopaminergic neuron differentiation score (ReNCell VM [2]; library: LOPAC): inactive: 0
dopaminergic neuron differentiation score (ReNCell VM [2]; library: Prestwick): inactive: 0
dopaminergic neuron differentiation score (ReNCell VM [2]; library: Tocriscreen): inactive: 1

O=C(c1ccc(OCCN2CCCCC2)cc1)c1c(-c2ccc(O)cc2)sc2cc(O)ccc12 [Raloxifene hydrochloride]
neuronal differentiation score (ReNCell VM [1]; library: LOPAC): active: 2
neuronal differentiation score (ReNCell VM [1]; library: Prestwick): inactive: 0
neuronal differentiation score (ReNCell VM [1]; library: Tocriscreen): inactive: 0
dopaminergic neuron differentiation score (ReNCell VM [2]; library: LOPAC): inactive: 0
dopaminergic neuron differentiation score (ReNCell VM [2]; library: Prestwick): inactive: 0
dopaminergic neuron differentiation score (ReNCell VM [2]; library: Tocriscreen): inactive: 0

CNCCC(Oc1ccc(C(F)(F)F)cc1)c1ccccc1 (stereo unspecified) [Fluoxetine hydrochloride]
neuronal differentiation score (ReNCell VM [1]; library: LOPAC): inactive: 1
neuronal differentiation score (ReNCell VM [1]; library: Prestwick): inactive: 0
neuronal differentiation score (ReNCell VM [1]; library: Tocriscreen): inactive: 0
dopaminergic neuron differentiation score (ReNCell VM [2]; library: LOPAC): inactive: 0
dopaminergic neuron differentiation score (ReNCell VM [2]; library: Prestwick): inactive: 0
dopaminergic neuron differentiation score (ReNCell VM [2]; library: Tocriscreen): inactive: 0

O=c1c(-c2ccc(O)cc2)coc2cc(O)cc(O)c12 [Genistein]
neuronal differentiation score (ReNCell VM [1]; library: LOPAC): inactive: 0
neuronal differentiation score (ReNCell VM [1]; library: Phytochemical): inactive: 0
neuronal differentiation score (ReNCell VM [1]; library: Tocriscreen): inactive: -1
dopaminergic neuron differentiation score (ReNCell VM [2]; library: LOPAC): inactive: 0
dopaminergic neuron differentiation score (ReNCell VM [2]; library: Phytochemical): inactive: 0
dopaminergic neuron differentiation score (ReNCell VM [2]; library: Tocriscreen): inactive: 0

COc1cc2nc(N3CCN(C(=O)C4CCCO4)CC3)nc(N)c2cc1OC (stereo unspecified) [Terazosin hydrochloride]
neuronal differentiation score (ReNCell VM [1]; library: LOPAC): inactive: 0
neuronal differentiation score (ReNCell VM [1]; library: Prestwick): inactive: 0
neuronal differentiation score (ReNCell VM [1]; library: Tocriscreen): inactive: 0
dopaminergic neuron differentiation score (ReNCell VM [2]; library: LOPAC): inactive: 0
dopaminergic neuron differentiation score (ReNCell VM [2]; library: Prestwick): inactive: 0
dopaminergic neuron differentiation score (ReNCell VM [2]; library: Tocriscreen): inactive: 0

Fc1ccc(C(c2ccc(F)cc2)N2CCN(C/C=C/c3ccccc3)CC2)cc1 [Flunarizine dihydrochloride]
neuronal differentiation score (ReNCell VM [1]; library: LOPAC): inactive: -1
neuronal differentiation score (ReNCell VM [1]; library: Prestwick): inactive: 0
neuronal differentiation score (ReNCell VM [1]; library: Tocriscreen): inactive: 0
dopaminergic neuron differentiation score (ReNCell VM [2]; library: LOPAC): inactive: 0
dopaminergic neuron differentiation score (ReNCell VM [2]; library: Prestwick): inactive: 0
dopaminergic neuron differentiation score (ReNCell VM [2]; library: Tocriscreen): inactive: 0

CC1=C(/C=C/C(C)=C/C=C/C(C)=C/C(=O)O)C(C)(C)CCC1 [Retinoic acid]
neuronal differentiation score (ReNCell VM [1]; library: LOPAC): inactive: 1
neuronal differentiation score (ReNCell VM [1]; library: Prestwick): inactive: 1
neuronal differentiation score (ReNCell VM [1]; library: Tocriscreen): inactive: 1
dopaminergic neuron differentiation score (ReNCell VM [2]; library: LOPAC): inactive: 0
dopaminergic neuron differentiation score (ReNCell VM [2]; library: Prestwick): inactive: 0
dopaminergic neuron differentiation score (ReNCell VM [2]; library: Tocriscreen): inactive: 0

CCOC(=O)C1=C(C)NC(C)=C(C(=O)OC)C1c1cccc([N+](=O)[O-])c1 (stereo unspecified) [Nitrendipine]
neuronal differentiation score (ReNCell VM [1]; library: LOPAC): inactive: 0
neuronal differentiation score (ReNCell VM [1]; library: Prestwick): inactive: 0
neuronal differentiation score (ReNCell VM [1]; library: Tocriscreen): inactive: 0
dopaminergic neuron differentiation score (ReNCell VM [2]; library: LOPAC): inactive: 0
dopaminergic neuron differentiation score (ReNCell VM [2]; library: Prestwick): inactive: 0
dopaminergic neuron differentiation score (ReNCell VM [2]; library: Tocriscreen): inactive: 0

Cn1c(=O)c2c(ncn2C)n(C)c1=O [Caffeine]
neuronal differentiation score (ReNCell VM [1]; library: LOPAC): inactive: 0
neuronal differentiation score (ReNCell VM [1]; library: Phytochemical): inactive: 0
neuronal differentiation score (ReNCell VM [1]; library: Prestwick): inactive: 0
dopaminergic neuron differentiation score (ReNCell VM [2]; library: LOPAC): inactive: 1
dopaminergic neuron differentiation score (ReNCell VM [2]; library: Phytochemical): inactive: 0
dopaminergic neuron differentiation score (ReNCell VM [2]; library: Prestwick): inactive: 1

O=C1CC2(CCCC2)CC(=O)N1CCCCN1CCN(c2ncccn2)CC1 [Buspirone hydrochloride]
neuronal differentiation score (ReNCell VM [1]; library: LOPAC): inactive: 0
neuronal differentiation score (ReNCell VM [1]; library: Prestwick): inactive: 0
neuronal differentiation score (ReNCell VM [1]; library: Tocriscreen): inactive: 0
dopaminergic neuron differentiation score (ReNCell VM [2]; library: LOPAC): inactive: 0
dopaminergic neuron differentiation score (ReNCell VM [2]; library: Prestwick): inactive: 0
dopaminergic neuron differentiation score (ReNCell VM [2]; library: Tocriscreen): inactive: 0

O=C(NCCNCC(O)COc1ccc(O)cc1)N1CCOCC1 (stereo unspecified) [Xamoterol hemifumarate]
neuronal differentiation score (ReNCell VM [1]; library: LOPAC): inactive: 0
neuronal differentiation score (ReNCell VM [1]; library: Prestwick): inactive: 0
neuronal differentiation score (ReNCell VM [1]; library: Tocriscreen): inactive: 0
dopaminergic neuron differentiation score (ReNCell VM [2]; library: LOPAC): inactive: 0
dopaminergic neuron differentiation score (ReNCell VM [2]; library: Prestwick): inactive: 0
dopaminergic neuron differentiation score (ReNCell VM [2]; library: Tocriscreen): inactive: 0

COc1ccc(C2CNC(=O)C2)cc1OC1CCCC1 (stereo unspecified) [Rolipram]
neuronal differentiation score (ReNCell VM [1]; library: LOPAC): inactive: 0
neuronal differentiation score (ReNCell VM [1]; library: Prestwick): inactive: 0
neuronal differentiation score (ReNCell VM [1]; library: Tocriscreen): inactive: 0
dopaminergic neuron differentiation score (ReNCell VM [2]; library: LOPAC): inactive: 0
dopaminergic neuron differentiation score (ReNCell VM [2]; library: Prestwick): inactive: 0
dopaminergic neuron differentiation score (ReNCell VM [2]; library: Tocriscreen): inactive: 0

CNC(=C[N+](=O)[O-])NCCSCc1ccc(CN(C)C)o1 [Ranitidine hydrochloride]
neuronal differentiation score (ReNCell VM [1]; library: LOPAC): inactive: 0
neuronal differentiation score (ReNCell VM [1]; library: Prestwick): inactive: 0
neuronal differentiation score (ReNCell VM [1]; library: Tocriscreen): inactive: 0
dopaminergic neuron differentiation score (ReNCell VM [2]; library: LOPAC): inactive: 0
dopaminergic neuron differentiation score (ReNCell VM [2]; library: Prestwick): inactive: 0
dopaminergic neuron differentiation score (ReNCell VM [2]; library: Tocriscreen): inactive: 0
